# Percent effect of library compounds

Sequences of proteins named here, by UniProt entry; tags and fusion partners are left off. Residues count along the entry.
UniProt A4I591, 1-473: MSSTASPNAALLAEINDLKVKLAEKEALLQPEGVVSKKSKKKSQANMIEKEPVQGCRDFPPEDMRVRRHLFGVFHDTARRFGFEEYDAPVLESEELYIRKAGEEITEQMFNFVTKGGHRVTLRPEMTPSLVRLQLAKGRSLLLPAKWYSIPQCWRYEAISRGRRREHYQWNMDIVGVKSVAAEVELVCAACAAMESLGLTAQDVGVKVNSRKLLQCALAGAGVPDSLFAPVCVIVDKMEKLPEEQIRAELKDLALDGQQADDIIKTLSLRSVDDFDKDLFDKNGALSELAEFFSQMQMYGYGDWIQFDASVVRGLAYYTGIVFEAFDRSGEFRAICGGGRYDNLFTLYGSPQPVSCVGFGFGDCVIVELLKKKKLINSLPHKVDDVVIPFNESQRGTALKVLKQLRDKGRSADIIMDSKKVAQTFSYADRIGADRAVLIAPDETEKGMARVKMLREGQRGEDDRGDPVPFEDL
UniProt P9WFT3, whole entry: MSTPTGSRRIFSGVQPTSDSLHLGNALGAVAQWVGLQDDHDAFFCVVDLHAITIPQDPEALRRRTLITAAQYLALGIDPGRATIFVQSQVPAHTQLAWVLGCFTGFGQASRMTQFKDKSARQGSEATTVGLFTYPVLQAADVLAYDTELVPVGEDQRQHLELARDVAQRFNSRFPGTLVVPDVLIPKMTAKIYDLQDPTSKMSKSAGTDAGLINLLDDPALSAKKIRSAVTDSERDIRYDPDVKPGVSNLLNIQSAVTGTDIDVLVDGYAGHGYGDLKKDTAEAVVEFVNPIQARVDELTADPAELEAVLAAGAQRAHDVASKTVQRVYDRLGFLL
UniProt P9WNZ1, whole entry: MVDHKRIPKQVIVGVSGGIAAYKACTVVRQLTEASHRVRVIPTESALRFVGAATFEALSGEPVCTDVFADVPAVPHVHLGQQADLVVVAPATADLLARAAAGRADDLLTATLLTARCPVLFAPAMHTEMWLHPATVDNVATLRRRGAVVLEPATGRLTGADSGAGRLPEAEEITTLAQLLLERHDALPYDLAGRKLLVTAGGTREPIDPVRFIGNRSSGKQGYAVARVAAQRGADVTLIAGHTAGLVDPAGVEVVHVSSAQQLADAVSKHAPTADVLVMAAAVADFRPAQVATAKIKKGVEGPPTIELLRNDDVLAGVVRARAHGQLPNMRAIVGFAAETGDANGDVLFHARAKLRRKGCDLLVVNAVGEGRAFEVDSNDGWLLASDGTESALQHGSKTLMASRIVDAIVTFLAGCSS

The values are deposited in ChEMBL (CHEMBL3988442, “University of Dundee, Small-Polar-MMV Screening Library” (2021)).

LiHisRS: 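Enzyme assay of histidyl-tRNA synthetase; the read-out is not stated. Target: Histidine-tRNA ligase, Leishmania infantum (UniProt A4I591). Tested at 30 µM. Direction is inferred from retests: higher values go with stronger inhibition. The assay is labelled LdHisRS but filed under L. infantum. Size under these conditions: about 69,000 compounds, about 410 of them at 50% or above in at least one test.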
MtTrpRS: 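Enzyme assay of tryptophanyl-tRNA synthetase; the read-out is not stated. Target: Tryptophan-tRNA ligase, Mycobacterium tuberculosis (UniProt P9WFT3). Compounds at 10 µM. Higher most likely means stronger inhibition; the record gives no direction and few retests gave an IC50. Of about 65,000 compounds tested this way, about 64 (0.098%) reached 50% or more in at least one test.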
Toxoplasma: 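Assay of Toxoplasma gondii numbers, read through their beta-galactosidase reporter with a colour substrate. Concentration: 10 µM. The record gives no direction; the compounds picked for IC50 retests had high values, so higher reads as fewer parasites. About 67,000 compounds were tested under these conditions; 0.38% (about 260) showed 50% or more at least once.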
CoaBC: 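Coenzyme A biosynthesis protein CoaBC, Mycobacterium tuberculosis (UniProt P9WNZ1). Enzyme assay of CoaBC with a phosphate dye (Biomol Green) read at 650 nm. Tested at 30 µM. Direction is inferred from only a few compounds that gave an IC50; most scored high, so higher reads as stronger inhibition. Most strong results did not repeat in a second test. Size under these conditions: about 67,000 compounds, about 40 of them at 50% or above in at least one test.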

Results are given as percent effect. The record does not define 0% and 100%; most values in the screen are far below 50% and negative numbers occur (in some assays of this library far below -100). This is an unselected part of the compounds tested. A dash means the value is not listed here; it may have been measured.

Compound	LiHisRS	MtTrpRS	Toxoplasma	CoaBC
[H][C@@]12CCN(c3ccc(C)nn3)C[C@]1(C(=O)N1CCCO1)CCO2	-	-	-14.1%	-
O=C(O)C(F)(F)F.[H][C@]12CCC[C@@H](CNc3ccccn3)[C@@]1([H])CN(Cc1nccs1)C2	-	-	-10.23%	-
Fc1cccc(N2CCCC3(C2)CN(c2ncccn2)CCO3)c1.O=C(O)C(F)(F)F.O=C(O)C(F)(F)F (centres unmarked)	-	-	-3.104%	-
Cc1nc(NC(=O)c2c(-n3cnnn3)sc(C)c2C)sc1C	21.74%	1.608%	-	3.281%
COCC(=O)N1CC[C@@H]2O[C@@H](C)C[C@H]2C1	24%	-4.222%	-	5%
Cn1nc(Cn2cccc2)c2c1CN(Cc1ccoc1)C2	22.22%	15.99%	-	-
Fc1cccc(N2CCCC3(CN(Cc4cccnc4)CCO3)C2)c1 (centres unmarked)	29%	-7.506%	-	4.079%
[H][C@]12CC[C@@]3(N=C(C)N(C)C3=O)[C@@]1([H])CN(C(=O)Nc1ccc(F)cc1)C2	-	-	1.296%	-
CCN(c1ccc(C(=O)N2CCCC2)cc1)S(=O)(=O)CC	0.9615%	-5.308%	-3.315%	2.954%
COc1cc(N2CCN(Cc3ccc(C)o3)C(CCO)C2)nc(N)n1 (centres unmarked)	2.222%	2.106%	-12.11%	-1.217%
CNS(=O)(=O)c1ccc(CNC(=O)C2CCCN(C)C2)cc1 (centres unmarked)	13.51%	2.089%	2.5%	-30.74%
Cc1nccnc1N1Cc2cnn(Cc3ccc(F)cc3)c2C1	21.88%	-4.123%	3.696%	3.599%
Cc1cc(CN2CCN(Cc3ccc(C#N)cc3OC(F)F)CC2)no1	-5.747%	-2.529%	-41.8%	-4.251%
CC(C)N(C)C(=O)C1CSCN1S(=O)(=O)c1cccs1 (centres unmarked)	4.712%	0.289%	2.684%	-8.696%
CC(CNC(=O)c1cnc[nH]1)Oc1ccc(Cl)cc1 (centres unmarked)	10.84%	4.285%	3.384%	8.156%
CN(C)CCNCC1COCc2c(-c3ccnn3C)nnn2C1 (centres unmarked)	-4.545%	-	-7.689%	-3.704%
[H][C@]12CC[C@@]3(N=C(c4ccccc4)NC3=O)[C@@]1([H])CN(C(=O)N1CCCC1)C2	-	-	1.465%	-
CN(Cc1nccn1C)S(=O)(=O)N1CCCC1c1ccco1 (centres unmarked)	12.82%	4.641%	13.85%	-0.7634%
CN1CCN(Cc2cccnc2)C2(CCN(Cc3ccccn3)C2)C1=O.O=C(O)C(F)(F)F.O=C(O)C(F)(F)F.O=C(O)C(F)(F)F (centres unmarked)	-	-	2.23%	-
CC(=O)Nc1nc(C(=O)N2CCCC(n3nc(C)cc3C)C2)cs1 (centres unmarked)	1.515%	-1.657%	-1.569%	-0.5008%
O=C(O)C(F)(F)F.O=C(O)C(F)(F)F.[H][C@@]12OCCN(C(=O)c3cncc(C)c3)[C@@]1([H])CC[C@H]2OCCN(C)C	-	-	10.1%	-
Cc1nc(Nc2ccccn2)cc(N2CCN(S(C)(=O)=O)CC2)n1	6.957%	20.14%	19.95%	6.977%
CN(CC1CCCCC1)C(=O)c1ccc(-n2ncc(C#N)c2N)cc1	6.25%	1.394%	0.8899%	0.7905%
Cc1cccc(CO[C@@H]2CO[C@@]3(CCN(S(=O)(=O)N(C)C)C3)C2)n1.O=C(O)C(F)(F)F	-	-	-7.651%	-
Cn1ccc2ccc(C(=O)NC3CCOC(C)(C)C3)cc21 (centres unmarked)	14.58%	3.145%	-6.113%	-5.063%
Cc1ccc(S(=O)(=O)Nc2ccc(-n3nnn(C)c3=O)cc2)cc1	12.17%	-4.939%	-17.25%	0.6342%
CS(=O)(=O)c1ccc(NCc2ccc(F)cc2)cn1	18.31%	0.5045%	-0.3236%	-
CN(C)CCCN(C)c1nccc(N2CCN[C@H]3CS(=O)(=O)C[C@H]32)n1	12.9%	17.26%	-	3.507%
Cc1ccc(C(=O)NC2CCCN(S(C)(=O)=O)C2)c(=O)[nH]1 (centres unmarked)	10.59%	-1.211%	3.565%	2.589%
Cc1c(S(=O)(=O)N2CCOCC2)cc2c(C)cc(=O)n3c2c1CCC3	6.897%	3.109%	70.37%	-7.39%
CC(C)c1cc(C(=O)N2CCCC(n3cncn3)C2)n[nH]1 (centres unmarked)	5.128%	4.032%	11.72%	-6.434%
CCc1ncc2c(n1)CN(CC(O)COc1ccc(C#N)cc1)CC2 (centres unmarked)	14.29%	1.125%	4.189%	1.621%
CC(=O)N1CCC(CCNC(C)Cc2ccc(F)cc2)CC1 (centres unmarked)	13.7%	2.534%	-1.654%	-11.49%
COc1ccc(CNC(=O)NCc2cc(C)oc2C)cc1	12.82%	-1.887%	-5.915%	8.403%
O=C(CCCn1ccnc1)N1CCC2(CC1)[C@H](O)C[C@@H]2OCCO	5.556%	-0.9709%	2.736%	-1.966%
CCN(CC)C(=O)CN1CCCC1C(=O)N(C)C (centres unmarked)	4.651%	-3.695%	8.625%	2.088%
COc1ccccc1N1CCN(Cc2ncc(C)c(OC)c2C)CC1=O	11.48%	-7.729%	17.49%	3.247%
CC1CN(C(=O)CCc2cc(Br)cs2)CCO1 (centres unmarked)	4%	-5.57%	4.58%	5.372%
CS(=O)(=O)N1C[C@H](C(=O)Nc2cccnc2)C[C@H]2OCC[C@H]21	13.79%	-0.1079%	-	-
Cc1cc(C)nc(N2CCC(C(=O)Nc3ccc(C(C)C)cc3)CC2)n1	12.68%	-4.008%	-	-1.9%
COc1ccccc1CC(=O)N1C[C@H]2CC[C@@H]1CN(Cc1cscn1)C2	10.39%	1.112%	-	2.299%
Cc1ccc(CN2CCCC(c3nnc(CN4CCCCC4)n3C)C2)s1 (centres unmarked)	13.6%	-1.087%	-11.92%	3.498%
CCc1nc(CN2CCCC(NCc3ncc(C(C)(C)C)o3)C2)no1 (centres unmarked)	24%	0.7037%	6.793%	7.436%
CN(Cc1ccccc1)CC1CC2(CO1)CN(c1nncs1)C2 (centres unmarked)	16.81%	6.614%	0%	14.11%
Fc1cccc(N2CCc3ncnc(C4CC4)c3CC2)c1	36%	-4.575%	2.212%	-23.16%
CS(=O)(=O)NCC1CCCN(C(=O)c2cccc(F)c2)C1 (centres unmarked)	9.649%	-7.768%	16.57%	4.307%
CS(=O)(=O)CCSc1n[nH]c(-c2ccc3c(c2)CCC3)n1	9.735%	-1.774%	-1.142%	0.9346%
Cc1cc(C)c(CNC(=O)NCC2COc3ccccc3C2)c(=O)[nH]1 (centres unmarked)	18.92%	-2.279%	0.2273%	10.12%
c1cn(Cc2nnc(C3CCN(c4nccs4)CC3)n2C2CC2)cn1	18.45%	3.375%	0.5507%	10.27%
CC(C)CCNC(=O)c1csc(NC2CC2)n1	18.42%	1.704%	-8.859%	6.076%
N#Cc1ccc(C(=O)N2CC[C@H]3[C@H]2CCN3CC2CC2)cc1	13.46%	-4.651%	-	4.505%

5 of the entries, repeated:

| Compound | LiHisRS | MtTrpRS | Toxoplasma | CoaBC |
|---|---|---|---|---|
| `Cc1cc(CN2CCN(Cc3ccc(C#N)cc3OC(F)F)CC2)no1` | -5.747% | -2.529% | -41.8% | -4.251% |
| `CC(=O)N1CCC(CCNC(C)Cc2ccc(F)cc2)CC1` (centres unmarked) | 13.7% | 2.534% | -1.654% | -11.49% |
| `CNS(=O)(=O)c1ccc(CNC(=O)C2CCCN(C)C2)cc1` (centres unmarked) | 13.51% | 2.089% | 2.5% | -30.74% |
| `COc1cc(N2CCN(Cc3ccc(C)o3)C(CCO)C2)nc(N)n1` (centres unmarked) | 2.222% | 2.106% | -12.11% | -1.217% |
| `CC(C)N(C)C(=O)C1CSCN1S(=O)(=O)c1cccs1` (centres unmarked) | 4.712% | 0.289% | 2.684% | -8.696% |